Assay results taken from the supplement of paper PMC12819154, “High-throughput peptide-centric local stability assay extends protein–ligand identification to membrane proteins, tissues and bacteria” (Nature Structural & Molecular Biology, 2025).
This is one part of the list. Small differences around the control level are noise.

Sequences of proteins named here, by UniProt entry; tags and fusion partners are left off. A change or cut given only in a name is not applied to a line headed by its entry.
UniProt Q9CXI0: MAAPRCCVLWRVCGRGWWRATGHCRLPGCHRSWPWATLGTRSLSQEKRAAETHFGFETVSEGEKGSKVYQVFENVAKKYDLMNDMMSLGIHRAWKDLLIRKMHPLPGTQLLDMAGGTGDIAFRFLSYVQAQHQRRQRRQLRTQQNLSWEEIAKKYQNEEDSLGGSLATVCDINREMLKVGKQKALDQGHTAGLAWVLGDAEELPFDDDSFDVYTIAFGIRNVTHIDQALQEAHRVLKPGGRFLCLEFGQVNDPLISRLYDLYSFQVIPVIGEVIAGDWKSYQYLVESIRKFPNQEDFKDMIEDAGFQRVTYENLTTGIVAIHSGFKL
UniProt Q99KP3: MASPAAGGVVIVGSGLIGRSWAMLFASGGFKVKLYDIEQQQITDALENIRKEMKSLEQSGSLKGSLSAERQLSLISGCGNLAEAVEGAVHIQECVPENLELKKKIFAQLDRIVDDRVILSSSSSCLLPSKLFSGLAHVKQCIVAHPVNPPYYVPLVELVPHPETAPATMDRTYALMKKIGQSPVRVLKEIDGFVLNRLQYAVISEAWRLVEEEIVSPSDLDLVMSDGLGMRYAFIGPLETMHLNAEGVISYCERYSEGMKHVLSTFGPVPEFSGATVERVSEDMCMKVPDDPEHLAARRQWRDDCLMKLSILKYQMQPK
UniProt Q99MU3: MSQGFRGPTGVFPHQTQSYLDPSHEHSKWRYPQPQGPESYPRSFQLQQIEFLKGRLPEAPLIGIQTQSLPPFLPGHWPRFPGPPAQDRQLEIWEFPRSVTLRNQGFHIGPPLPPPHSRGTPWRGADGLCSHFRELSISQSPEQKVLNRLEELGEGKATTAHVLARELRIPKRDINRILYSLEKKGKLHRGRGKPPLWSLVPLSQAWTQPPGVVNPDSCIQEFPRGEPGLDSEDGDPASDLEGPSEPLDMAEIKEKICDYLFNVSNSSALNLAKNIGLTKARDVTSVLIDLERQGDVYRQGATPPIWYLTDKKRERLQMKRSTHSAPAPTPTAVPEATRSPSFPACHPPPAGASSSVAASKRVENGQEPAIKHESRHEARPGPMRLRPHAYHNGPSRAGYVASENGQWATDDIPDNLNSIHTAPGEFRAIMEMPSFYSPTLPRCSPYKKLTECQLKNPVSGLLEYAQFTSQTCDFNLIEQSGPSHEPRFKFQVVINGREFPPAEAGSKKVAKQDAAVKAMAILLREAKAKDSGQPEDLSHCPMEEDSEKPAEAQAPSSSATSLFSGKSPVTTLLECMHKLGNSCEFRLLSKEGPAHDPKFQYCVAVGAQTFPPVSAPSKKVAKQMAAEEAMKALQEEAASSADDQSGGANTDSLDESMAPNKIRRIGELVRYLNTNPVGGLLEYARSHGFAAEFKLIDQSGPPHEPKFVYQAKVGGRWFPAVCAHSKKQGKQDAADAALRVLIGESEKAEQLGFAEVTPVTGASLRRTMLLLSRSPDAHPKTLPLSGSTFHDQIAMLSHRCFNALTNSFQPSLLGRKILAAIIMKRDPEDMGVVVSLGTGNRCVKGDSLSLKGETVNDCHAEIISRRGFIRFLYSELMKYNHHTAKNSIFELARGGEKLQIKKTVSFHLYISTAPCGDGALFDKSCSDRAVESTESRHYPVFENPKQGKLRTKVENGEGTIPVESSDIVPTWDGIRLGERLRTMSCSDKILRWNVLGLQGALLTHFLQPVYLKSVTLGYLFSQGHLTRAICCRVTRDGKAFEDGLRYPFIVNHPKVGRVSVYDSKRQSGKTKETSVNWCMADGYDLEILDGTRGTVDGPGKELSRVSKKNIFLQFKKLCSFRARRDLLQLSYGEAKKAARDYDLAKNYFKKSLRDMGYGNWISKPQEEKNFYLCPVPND
UniProt Q9CR95: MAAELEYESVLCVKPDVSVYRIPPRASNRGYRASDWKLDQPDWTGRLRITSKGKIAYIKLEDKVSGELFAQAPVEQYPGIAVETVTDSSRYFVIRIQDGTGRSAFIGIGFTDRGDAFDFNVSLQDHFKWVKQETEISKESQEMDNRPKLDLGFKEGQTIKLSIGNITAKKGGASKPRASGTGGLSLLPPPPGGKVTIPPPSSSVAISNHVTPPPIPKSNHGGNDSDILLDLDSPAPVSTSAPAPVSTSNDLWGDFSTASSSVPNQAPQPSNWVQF
UniProt Q9CXI5: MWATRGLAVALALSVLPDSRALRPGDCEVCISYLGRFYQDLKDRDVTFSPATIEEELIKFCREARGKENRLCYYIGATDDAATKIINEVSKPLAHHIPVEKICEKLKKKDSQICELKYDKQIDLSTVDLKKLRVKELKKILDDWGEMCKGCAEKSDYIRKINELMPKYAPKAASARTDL
UniProt Q9CT10: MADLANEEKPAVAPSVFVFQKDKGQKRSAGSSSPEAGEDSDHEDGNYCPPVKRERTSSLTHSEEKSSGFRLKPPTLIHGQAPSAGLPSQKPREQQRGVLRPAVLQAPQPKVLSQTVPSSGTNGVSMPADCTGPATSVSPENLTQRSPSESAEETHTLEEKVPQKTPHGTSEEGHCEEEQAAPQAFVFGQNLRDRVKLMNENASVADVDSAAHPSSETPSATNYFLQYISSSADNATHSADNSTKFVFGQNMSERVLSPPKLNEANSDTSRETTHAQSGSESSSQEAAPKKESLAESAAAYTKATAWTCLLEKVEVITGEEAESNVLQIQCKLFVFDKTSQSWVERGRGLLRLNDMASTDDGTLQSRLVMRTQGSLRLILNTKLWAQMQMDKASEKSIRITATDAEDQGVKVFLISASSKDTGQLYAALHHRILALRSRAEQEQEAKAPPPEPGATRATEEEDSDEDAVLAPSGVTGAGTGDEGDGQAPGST
UniProt Q99K30: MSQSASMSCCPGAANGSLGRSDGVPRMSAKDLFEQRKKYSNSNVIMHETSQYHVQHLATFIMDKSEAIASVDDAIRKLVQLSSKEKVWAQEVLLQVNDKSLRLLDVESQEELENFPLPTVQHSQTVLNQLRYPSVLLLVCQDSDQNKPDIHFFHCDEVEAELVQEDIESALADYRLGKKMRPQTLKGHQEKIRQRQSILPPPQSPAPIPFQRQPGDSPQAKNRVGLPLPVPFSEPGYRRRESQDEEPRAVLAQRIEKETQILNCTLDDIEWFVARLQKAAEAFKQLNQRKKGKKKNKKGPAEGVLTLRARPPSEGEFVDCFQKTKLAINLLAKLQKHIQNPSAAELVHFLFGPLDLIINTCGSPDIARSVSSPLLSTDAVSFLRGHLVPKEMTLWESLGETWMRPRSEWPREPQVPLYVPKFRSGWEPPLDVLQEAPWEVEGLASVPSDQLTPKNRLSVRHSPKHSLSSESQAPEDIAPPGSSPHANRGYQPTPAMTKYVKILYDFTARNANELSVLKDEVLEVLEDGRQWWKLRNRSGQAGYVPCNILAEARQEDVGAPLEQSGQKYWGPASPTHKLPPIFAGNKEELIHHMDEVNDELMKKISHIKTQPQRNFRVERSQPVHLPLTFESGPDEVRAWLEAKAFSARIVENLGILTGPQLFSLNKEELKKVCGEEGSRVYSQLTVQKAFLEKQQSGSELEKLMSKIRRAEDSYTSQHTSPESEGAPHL
UniProt Q99JW4, whole entry: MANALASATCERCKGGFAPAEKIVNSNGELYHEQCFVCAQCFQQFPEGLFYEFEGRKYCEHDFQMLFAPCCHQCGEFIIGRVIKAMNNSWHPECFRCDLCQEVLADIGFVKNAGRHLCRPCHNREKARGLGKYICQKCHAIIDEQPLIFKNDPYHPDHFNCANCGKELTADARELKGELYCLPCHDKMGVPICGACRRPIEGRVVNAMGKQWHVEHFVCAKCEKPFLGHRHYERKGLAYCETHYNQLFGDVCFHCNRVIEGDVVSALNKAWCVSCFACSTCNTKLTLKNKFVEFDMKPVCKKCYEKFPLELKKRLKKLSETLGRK
UniProt Q9CQX2: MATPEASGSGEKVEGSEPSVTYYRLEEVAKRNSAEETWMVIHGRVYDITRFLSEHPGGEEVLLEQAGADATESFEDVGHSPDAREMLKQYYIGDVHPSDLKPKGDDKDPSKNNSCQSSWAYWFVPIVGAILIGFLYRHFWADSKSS
UniProt Q99K28: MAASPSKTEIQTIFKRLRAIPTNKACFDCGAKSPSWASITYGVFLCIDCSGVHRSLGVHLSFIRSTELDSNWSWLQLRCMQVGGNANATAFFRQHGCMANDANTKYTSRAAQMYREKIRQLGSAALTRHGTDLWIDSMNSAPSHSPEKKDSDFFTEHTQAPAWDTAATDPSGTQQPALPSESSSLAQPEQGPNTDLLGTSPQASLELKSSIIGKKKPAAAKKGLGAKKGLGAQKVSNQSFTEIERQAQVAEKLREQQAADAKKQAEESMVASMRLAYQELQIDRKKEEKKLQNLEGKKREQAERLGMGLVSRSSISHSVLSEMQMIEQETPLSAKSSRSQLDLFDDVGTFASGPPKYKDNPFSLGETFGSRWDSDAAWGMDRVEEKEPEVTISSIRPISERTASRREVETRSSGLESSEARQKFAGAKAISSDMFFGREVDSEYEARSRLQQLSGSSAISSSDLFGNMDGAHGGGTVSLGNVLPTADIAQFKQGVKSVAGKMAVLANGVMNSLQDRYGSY
UniProt Q9CPQ8: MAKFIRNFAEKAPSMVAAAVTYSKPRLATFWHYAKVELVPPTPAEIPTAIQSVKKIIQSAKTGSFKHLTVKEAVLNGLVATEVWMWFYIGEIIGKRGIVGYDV
UniProt Q99JI4: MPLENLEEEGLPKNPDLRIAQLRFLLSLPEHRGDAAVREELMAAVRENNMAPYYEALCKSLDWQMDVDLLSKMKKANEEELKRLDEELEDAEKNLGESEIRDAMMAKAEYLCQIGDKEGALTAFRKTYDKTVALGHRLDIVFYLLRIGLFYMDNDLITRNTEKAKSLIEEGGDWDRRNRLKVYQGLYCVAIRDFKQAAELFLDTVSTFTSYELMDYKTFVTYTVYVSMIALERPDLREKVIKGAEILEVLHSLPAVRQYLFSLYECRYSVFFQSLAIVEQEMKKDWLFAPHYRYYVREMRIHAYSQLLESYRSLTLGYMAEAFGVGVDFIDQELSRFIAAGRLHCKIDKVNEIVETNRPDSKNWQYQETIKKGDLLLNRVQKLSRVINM
UniProt Q9CRB9: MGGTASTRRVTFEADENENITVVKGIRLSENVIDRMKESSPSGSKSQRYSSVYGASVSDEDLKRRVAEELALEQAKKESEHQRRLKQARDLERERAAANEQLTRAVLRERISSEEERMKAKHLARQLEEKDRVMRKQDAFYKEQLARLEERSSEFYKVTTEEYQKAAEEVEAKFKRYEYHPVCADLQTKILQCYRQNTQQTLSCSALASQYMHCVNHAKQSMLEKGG
UniProt Q9CQA3: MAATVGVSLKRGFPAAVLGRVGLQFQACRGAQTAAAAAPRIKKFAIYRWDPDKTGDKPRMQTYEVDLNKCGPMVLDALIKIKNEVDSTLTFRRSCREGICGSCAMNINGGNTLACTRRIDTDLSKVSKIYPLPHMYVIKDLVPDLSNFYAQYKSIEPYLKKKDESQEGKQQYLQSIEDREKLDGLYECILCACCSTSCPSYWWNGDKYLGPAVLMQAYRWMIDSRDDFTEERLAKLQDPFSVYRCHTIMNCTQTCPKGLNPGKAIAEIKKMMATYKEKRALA
UniProt Q9CPU2: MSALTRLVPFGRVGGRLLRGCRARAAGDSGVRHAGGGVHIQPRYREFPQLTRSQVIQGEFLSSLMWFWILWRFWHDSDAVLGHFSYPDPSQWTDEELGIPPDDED
UniProt Q9CR80: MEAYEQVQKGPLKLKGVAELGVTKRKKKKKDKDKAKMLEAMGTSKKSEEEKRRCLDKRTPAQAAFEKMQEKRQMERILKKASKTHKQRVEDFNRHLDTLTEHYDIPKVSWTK
UniProt Q99N16: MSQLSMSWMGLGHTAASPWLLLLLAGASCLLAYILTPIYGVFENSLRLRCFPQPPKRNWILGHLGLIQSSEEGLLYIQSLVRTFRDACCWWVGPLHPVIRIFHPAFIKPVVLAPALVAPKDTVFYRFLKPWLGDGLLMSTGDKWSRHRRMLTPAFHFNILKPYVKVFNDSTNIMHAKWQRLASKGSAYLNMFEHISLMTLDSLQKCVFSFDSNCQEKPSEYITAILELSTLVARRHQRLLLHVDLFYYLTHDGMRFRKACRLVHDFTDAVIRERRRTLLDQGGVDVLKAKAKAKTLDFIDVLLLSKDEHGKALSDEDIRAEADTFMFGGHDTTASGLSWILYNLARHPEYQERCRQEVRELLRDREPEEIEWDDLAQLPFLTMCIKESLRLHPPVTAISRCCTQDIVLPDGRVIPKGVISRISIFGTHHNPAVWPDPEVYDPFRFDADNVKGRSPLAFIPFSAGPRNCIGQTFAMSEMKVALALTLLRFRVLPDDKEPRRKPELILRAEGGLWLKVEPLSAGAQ
UniProt Q9CR37: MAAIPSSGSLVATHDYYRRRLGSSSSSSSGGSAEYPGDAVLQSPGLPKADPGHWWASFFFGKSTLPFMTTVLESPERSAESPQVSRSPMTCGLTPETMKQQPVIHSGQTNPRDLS
UniProt Q9CR64: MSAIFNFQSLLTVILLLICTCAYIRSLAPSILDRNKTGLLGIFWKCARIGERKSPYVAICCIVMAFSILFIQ
UniProt Q9CWB7: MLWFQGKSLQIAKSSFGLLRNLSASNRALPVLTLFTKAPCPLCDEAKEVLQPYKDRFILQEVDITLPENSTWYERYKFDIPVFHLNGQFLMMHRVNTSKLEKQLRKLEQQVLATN

Compound: CN[C@@H]1C[C@H]2O[C@@](C)([C@@H]1OC)n1c3ccccc3c3c4c(c5c6ccccc6n2c5c31)C(=O)NC4 [staurosporine]
Test: log2 fold change of pooled soluble protein (PISA), ligand vs vehicle (log2 ratio); higher = more thermally stabilized
Settings: ligand concentration: 20 uM; assay format: PISA pool 52.9/55.5/58.6 C

Target	log2 fold change of pooled soluble protein
UniProt Q99K01	-0.193
UniProt Q9CXI0	-0.247
UniProt Q99KP3	0.0505
UniProt Q99JF5	0.101
UniProt Q99MU3	-0.161
UniProt Q9CR98	0.093
UniProt Q9CR95	-0.0169
UniProt Q9CXI5	0.104
UniProt Q9CT10	-0.038
UniProt Q9CXE2	0.2
UniProt Q99KK9	-0.0281
UniProt Q99K30	0.0487
UniProt Q99JW4	0.00357
UniProt Q9CQX2	0.146
UniProt Q99K28	-0.0741
UniProt Q9CPQ8	-0.192
UniProt Q99JI4	0.266
UniProt Q9CRB9	-0.0535

Two records picked at random from those above:
Target	log2 fold change of pooled soluble protein
UniProt Q9CT10	-0.038
UniProt Q9CXI0	-0.247

Remaining list, next part:

Target	log2 fold change of pooled soluble protein
UniProt Q9CQA3	-0.00441
UniProt Q99LS3	-0.217
UniProt Q9CPU2	-0.0257
UniProt Q99KG5	0.176
UniProt Q9CQK7	0.155
UniProt Q9CQ80	0.000485
UniProt Q9CWP6	-0.0181
UniProt Q99JY3	-0.00117
UniProt Q9CWE0	0.0842
UniProt Q9CR80	-0.387
UniProt Q9CR63	0.102
UniProt Q99N16	-0.000226
UniProt Q9CR37	-0.313
UniProt Q99JX3	0.106
UniProt Q9CR64	-0.00105
UniProt Q9CWB7	0.0467
UniProt Q99JF8	-0.0457
UniProt Q99K95	-0.00192
